No constants are given. Whether binding was seen depends on the method and setting. Binding seen in cells or lysates may run through a third protein. Binding calls can cover weak binding; strength is not graded here. Where a sequence is shown, tags or fusion partners need not be part of it.
Target: T1, SMG7-YFP (Arabidopsis thaliana) (UniProt A9QM73)
T1 sequence: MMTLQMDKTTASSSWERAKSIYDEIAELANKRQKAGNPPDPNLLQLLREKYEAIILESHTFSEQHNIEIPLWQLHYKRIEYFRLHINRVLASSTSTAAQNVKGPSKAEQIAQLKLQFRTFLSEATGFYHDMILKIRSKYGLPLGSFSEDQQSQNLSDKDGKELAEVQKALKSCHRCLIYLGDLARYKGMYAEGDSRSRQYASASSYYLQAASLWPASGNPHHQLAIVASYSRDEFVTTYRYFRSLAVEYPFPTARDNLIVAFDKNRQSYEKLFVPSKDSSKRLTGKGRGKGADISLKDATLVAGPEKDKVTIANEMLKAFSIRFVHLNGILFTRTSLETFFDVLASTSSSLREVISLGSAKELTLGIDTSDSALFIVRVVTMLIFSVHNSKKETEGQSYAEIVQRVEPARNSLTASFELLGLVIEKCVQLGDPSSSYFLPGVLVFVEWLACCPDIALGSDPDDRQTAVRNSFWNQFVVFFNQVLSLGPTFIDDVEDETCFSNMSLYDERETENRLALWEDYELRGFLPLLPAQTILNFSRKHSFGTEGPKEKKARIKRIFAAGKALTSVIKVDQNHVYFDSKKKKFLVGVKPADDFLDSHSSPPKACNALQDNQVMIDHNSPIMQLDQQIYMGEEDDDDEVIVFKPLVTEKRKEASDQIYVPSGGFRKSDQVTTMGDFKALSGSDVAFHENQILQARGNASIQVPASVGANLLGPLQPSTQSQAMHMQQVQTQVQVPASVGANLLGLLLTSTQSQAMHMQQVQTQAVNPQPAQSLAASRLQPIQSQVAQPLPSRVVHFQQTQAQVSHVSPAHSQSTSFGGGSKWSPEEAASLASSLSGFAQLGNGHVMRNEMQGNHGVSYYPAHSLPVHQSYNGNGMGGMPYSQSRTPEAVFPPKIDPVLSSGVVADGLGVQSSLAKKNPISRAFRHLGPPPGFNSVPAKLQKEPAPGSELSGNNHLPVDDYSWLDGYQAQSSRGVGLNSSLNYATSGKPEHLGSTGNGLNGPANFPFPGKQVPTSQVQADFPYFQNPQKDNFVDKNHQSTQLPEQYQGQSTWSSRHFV
Test: FRET or BRET; FLIM-FRET, YFP on SMG7 as donor and TagRFP on eIF4A as acceptor, transiently expressed in N. tabacum leaf epidermal cells; shortening of the YFP fluorescence lifetime

Sequences of proteins named here, by UniProt entry; tags and fusion partners are left off. A change or cut given only in a name is not applied to a line headed by its entry.
UniProt P41376: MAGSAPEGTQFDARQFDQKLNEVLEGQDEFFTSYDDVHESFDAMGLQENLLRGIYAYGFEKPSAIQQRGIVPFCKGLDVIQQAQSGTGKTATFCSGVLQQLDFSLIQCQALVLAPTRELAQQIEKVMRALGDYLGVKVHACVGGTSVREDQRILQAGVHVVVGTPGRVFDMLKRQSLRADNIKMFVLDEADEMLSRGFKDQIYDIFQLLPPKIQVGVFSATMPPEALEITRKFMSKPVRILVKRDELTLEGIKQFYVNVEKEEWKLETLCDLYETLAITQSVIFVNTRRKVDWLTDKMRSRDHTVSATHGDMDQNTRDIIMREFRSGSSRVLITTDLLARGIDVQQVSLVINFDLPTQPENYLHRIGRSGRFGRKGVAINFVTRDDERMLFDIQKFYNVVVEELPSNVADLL

binding: binds
Substance: eIF4A1^S146D (from UniProt P41376)
